In patent US4331595A, “Immunoregulatory diketopiperazine compounds” (Ortho Pharmaceutical Corporation, priority 1981, dated 1982):
For at least one compound, name, drawing or mass did not settle the structure.

Test system: mouse spleen cells (C57BL/6), generation of CLP-U
Test: in vitro cytotoxic lymphocyte precursor unit (CLP-U) assay (limiting dilution)
Format: cell-based
Settings: C57BL/6 spleen cells incubated with test peptide 1 h at 37° C; range printed in mixed units (pg/ml to ng/ml)

For `Cl.NCCCCC1NC(=O)C(CCC(N)=O)NC1=O` [Example III, cyclo-(L-Glutaminyl-L-lysine).Hydrochloride], the “concentrations at which enhancement of CLP-U upon suboptimal stimulation was observed” value was 0.1 pg/ml through 10 ng/ml and the “concentrations at which optimal enhancement of CLP-U was observed” value was 0.1 pg/ml through 0.01 ng/ml.
